Values quoted from earlier work in patent US20070060621A1, “Methods and compositions for the administration of prodrugs of proton pump inhibitors” (priority 2004, published 2007).
Some of these results come from one statement about several compounds together.

Details: demonstrated in other patent applications incorporated by reference; cited from earlier work

## COC(=O)COc1ccc(S(=O)(=O)n2c([S+]([O-])Cc3ncc(C)c(OC)c3C)nc3cc(OC)ccc32)cc1 (stereo not shown) [Compound 20]
  conversion of prodrug in vivo: decompose in vivo to form proton pump inhibitors
